At least one structure is not confirmed: it was looked up by name or label, or the drawing left a doubt.
Assay: Particle size measurement of crystallized compound with Horiba L950 particle size analyzer
Assay type: physicochemical
Conditions: measured in DI water
Description: Just as importantly as desirable small particle sizes is uniformity of particle size distributions (i.e., described by “D values”). D values of “D10”, “D50” and “D90” may be used to represent the midpoint and range of particle sizes of a given sample. The D10 particle size is the diameter at which 10% of a sample's mass is comprised of smaller particles. The D50 is the “mass median diameter” as it divides the sample equally by mass. The D90 particle size is the diameter at which 90% of a sample's mass is comprised of smaller particles.
System 10 of the present invention enables the production of customized particles within a narrow range of particle sizes. A common value used to express the uniformity of particle size distribution is the “span”. The span is a measure of how wide of a spectrum of particle sizes is produced. A system with a low relative span is desirable as it will produce more uniform distribution of particle sizes. Span can be calculated with the equation below: Span=(D90−D10)/D50.
Two grams of Paracetomol was dissolved in 100 grams of ethanol. […] The final solution was sampled and the particle size was measured, in heptane, using a Horiba L950 particle size analyzer. […]
Two grams of Carbamazepine was dissolved in 100 grams of ethanol. […] The final solution was sampled and the particle size was measured, in heptane, using a Horiba L950 particle size analyzer. […]

## CCC(C)n1ncn(-c2ccc(N3CCN(c4ccc(OCC5COC(Cn6cncn6)(c6ccc(Cl)cc6Cl)O5)cc4)CC3)cc2)c1=O [Itraconazole, (2R,4S)-rel-1-(butan-2-yl)-4-{4-[4-(4-{[(2R,4S)-2-(2,4-dichlorophenyl)-2-(1H-1,2,4-triazol-1-ylmethyl)-1,3-dioxolan-4-yl]methoxy}phenyl)piperazin-1-yl]phenyl}-4,5-dihydro-1H-1,2,4-triazol-5-one]
Span=(D90-D10)/D50
  Span: about 0.34
Final solution after crystallization in system 10
  median particle size: about 36 nanometers

Source: patent publication US9732068B1, “System for crystalizing chemical compounds and methodologies for utilizing the same” (GenSyn Technologies, Inc., priority 2013, dated 2017)
